The source of these data is PubChem BioAssay AID330 (DTP/NCI, 2004).

The test deals with P388 leukemia ip, CD2F1 mice, survival T/C. The test is described as follows: NCI In Vivo Anticancer Drug Screen. Data for tumor model P388 Leukemia (intraperitoneal) in CD2F1 (CDF1) mice. To be noted: T/C endpoint: median survival time, higher T/C = longer survival.
Where [1] appears, read: dose: 100.0 mg/kg/injection, schedule: Q01DX009 (ip), vehicle: saline with Tween-80.
Setting [2] is: dose: 50.0 mg/kg/injection, schedule: Q01DX009 (ip), vehicle: Klucel (hydroxypropylcellulose) (HPC).
The mark [3] stands for this setting: dose: 100.0 mg/kg/injection, schedule: Q01DX009 (ip), vehicle: Klucel (hydroxypropylcellulose) (HPC).
Setting [4] is: dose: 200.0 mg/kg/injection, schedule: Q01DX009 (ip), vehicle: Klucel (hydroxypropylcellulose) (HPC).
Where [5] appears, read: dose: 200.0 mg/kg/injection, schedule: Q01DX009 (ip), vehicle: saline with Tween-80.
Setting [6] is: dose: 50.0 mg/kg/injection, schedule: Q01DX009 (ip), vehicle: saline with Tween-80.
Setting [7] is: dose: 200.0 mg/kg/injection, schedule: Q01DX005 (ip), vehicle: saline.
Where [8] appears, read: dose: 50.0 mg/kg/injection, schedule: Q01DX005 (ip), vehicle: Klucel (hydroxypropylcellulose) (HPC).
Setting [9] is: dose: 200.0 mg/kg/injection, schedule: Q01DX005 (ip), vehicle: Klucel (hydroxypropylcellulose) (HPC).

The list shows only some results of the screen, not a fair sample: it is rich in T/C values a quarter to a half above the control, in often repeated tests (any T/C) and in doses without a T/C. Further doses and runs are listed elsewhere. T/C gives the treated animals as a percentage of the vehicle group. Some entries give survivors of the animals treated and no T/C: the source files T/C as zero there, which appears to mark a toxic dose or a test without result, not a measured value. Some doses without a T/C left all or most animals alive at the check, yet need not have been tolerated: the source hardly ever lists a survival T/C far under the control, and the zero likely stands for such cases as well. Survivors were counted at the toxicity check, usually on the fifth day, unless a day is given; later deaths do not show. Schedule codes are those of the source, read here as Q, the interval in days (D) or hours (H), X, the number of doses. For survival time, the PubChem record calls one and a half times the control and up active, and a quarter to a half above the control has no call in these data; cut-offs in other NCI protocols can differ.

For `COc1cc2c[n+]3c(c(C)c2cc1OC)-c1cc2c(cc1CC3)OCO2`, the survivor count is recorded as 3 of 6 (dose: 50.0 mg/kg/injection, schedule: Q04DX003 (ip), vehicle: distilled water + Tween-80); 0 of 6 (dose: 100.0 mg/kg/injection, schedule: Q04DX003 (ip), vehicle: distilled water + Tween-80); 0 of 6 (dose: 200.0 mg/kg/injection, schedule: Q04DX003 (ip), vehicle: distilled water + Tween-80); 0 of 6 (dose: 400.0 mg/kg/injection, schedule: Q04DX003 (ip), vehicle: distilled water + Tween-80). For the compound `O=Nc1ccc(Cl)cc1`, the T/C reads like this: (dose: 25.0 mg/kg/injection, schedule: Q04DX003 (ip), vehicle: Klucel (hydroxypropylcellulose) (HPC)) 126 % of control; (dose: 50.0 mg/kg/injection, schedule: Q04DX003 (ip), vehicle: Klucel (hydroxypropylcellulose) (HPC)) 127 % of control. Moreover, for the setting “dose: 100.0 mg/kg/injection, schedule: Q04DX003 (ip), vehicle: Klucel (hydroxypropylcellulose) (HPC)”, the survivor count is 5 of 6.

For `Cc1[nH]c(NC(=O)C(=O)O)c(C#N)c1C`, the survivor count under setting [1] is listed as 2 of 6. Turning to `CCN(CC)C(C)(C)C(=O)/C=C/c1ccc(Cl)cc1`, where the note is “dose: 240.0 mg/kg/injection, schedule: Q01DX005 (ip), vehicle: saline”, the survivor count was 6 of 6. As for `N#Cc1ccccc1C#N`, the T/C (dose: 6.25 mg/kg/injection, schedule: Q04DX003 (ip), vehicle: saline with Tween-80) was 125 % of control.

On to `Nc1nnc(COc2ccc(Cl)cc2)n1N`, for which the survivor count (dose: 240.0 mg/kg/injection, schedule: Q01DX005 (ip), vehicle: saline with Tween-80) was 0 of 6. Consider `C=CCNC(=S)N/N=C(\C)c1ccccn1`, for which the survivor count is, setting by setting: under setting [2], 2 of 6; under setting [3], 0 of 6; under setting [4], 0 of 6. `CC(/C=N\Nc1ccc(Cl)c(Cl)c1)=N/NC(=O)C[n+]1ccccc1`: the survivor count runs as follows: (dose: 200.0 mg/kg/injection, schedule: Q04DX002 (ip), vehicle: saline) 6 of 6; (dose: 400.0 mg/kg/injection, schedule: Q04DX002 (ip), vehicle: saline) 0 of 6. For the compound `OCc1c(Cl)nc2sccn12`, under “dose: 200.0 mg/kg/injection, schedule: Q01DX001 (ip), vehicle: Klucel (hydroxypropylcellulose) (HPC)”, the survivor count is given as 1 of 6. For the compound `NC(=O)CCBr`, under setting [5], the survivor count was 6 of 6. Regarding `COC(=O)C1CC2CCCCC2CC1OC(C)=O` (configuration not stated), under setting [6], the T/C was 126 % of control. `C[n+]1c(/C=C2/SC=C(c3ccccc3)S2)ccc2ccccc21`: the survivor count was 3 of 6 (dose: 3.12 mg/kg/injection, schedule: Q04DX002 (ip), vehicle: saline with Tween-80); 0 of 6 (dose: 12.5 mg/kg/injection, schedule: Q04DX002 (ip), vehicle: saline with Tween-80); 0 of 6 (dose: 25.0 mg/kg/injection, schedule: Q04DX002 (ip), vehicle: saline with Tween-80); 0 of 6 (dose: 50.0 mg/kg/injection, schedule: Q04DX002 (ip), vehicle: saline with Tween-80).

Turning to `N#Cc1c(C#N)c(O)c2c(N)cccc2c1O`, the survivor count (dose: 400.0 mg/kg/injection, schedule: Q04DX002 (ip), vehicle: saline with Tween-80) is 0 of 6. As to `C=C=C(C)C(c1ccccc1)N(C)C` (configuration not stated), under setting [7], the survivor count was 0 of 6. On to `Clc1nc[nH]c1Cl`, for which the survivor count under setting [5] is given as 0 of 6. Regarding `CN(C)/C=N/c1c(C#N)c(-c2ccccc2)c(-c2ccccc2)n1-c1ccccc1`, under setting [1], the survivor count is listed as 6 of 6.

Turning to `Oc1ccccc1O.[O-]c1ccccc1[O-].[O-]c1ccccc1[O-].[O]=[V+2]`, the survivor count is, setting by setting: (dose: 20.0 mg/kg/injection, schedule: Q01DX009 (ip), vehicle: saline) 6 of 6; (dose: 100.0 mg/kg/injection, schedule: Q04DX003 (ip), vehicle: saline) 0 of 6; (dose: 200.0 mg/kg/injection, schedule: Q04DX003 (ip), vehicle: saline) 0 of 6; (dose: 400.0 mg/kg/injection, schedule: Q04DX003 (ip), vehicle: saline) 0 of 6. `CCN(CC)CCCNc1cccc2c(SCc3ccccc3)ccnc12`: the survivor count (dose: 200.0 mg/kg/injection, schedule: Q01DX005 (ip), vehicle: saline with Tween-80) is listed as 5 of 5. Turning to `N#CC(C#N)=NNc1c(Br)cc(Cl)cc1Br`, the survivor count is 0 of 6 (dose: 12.5 mg/kg/injection, schedule: Q01DX009 (ip), vehicle: Klucel (hydroxypropylcellulose) (HPC)); 0 of 6 (dose: 25.0 mg/kg/injection, schedule: Q01DX009 (ip), vehicle: Klucel (hydroxypropylcellulose) (HPC)); 0 of 6 under setting [2]; 0 of 6 under setting [3]; 0 of 6 under setting [4]. With `CSCCC(N)C(=O)O` (configuration not stated), the T/C (dose: 150.0 mg/kg/injection, schedule: Q01DX009 (ip), vehicle: Klucel (hydroxypropylcellulose) (HPC)) was 125 % of control; the T/C under setting [5] is 126 % of control; the T/C (dose: 400.0 mg/kg/injection, schedule: Q01DX009 (ip), vehicle: saline with Tween-80) is 137 % of control. In the case of `CCOc1c(OC)cc(C2c3cc4c(c(OCC)c3CC3COC(=O)C32)OCO4)cc1OC` (configuration not stated), the survivor count is reported as 6 of 6 under setting [8] and 6 of 6 under setting [9]. Turning to `CN(C)CCNc1ccc(NCCN(C)C)c2c1C(=O)c1ccccc1C2=O`, the T/C reads like this: (dose: 5.0 mg/kg/injection, schedule: Q01DX009 (ip), vehicle: acid diluted with saline) 133 % of control; (dose: 10.0 mg/kg/injection, schedule: Q01DX009 (ip), vehicle: acid diluted with saline) 149 % of control; (dose: 10.0 mg/kg/injection, schedule: Q01DX009 (ip), vehicle: distilled water + Tween-80) 133 % of control. The survivor count (dose: 80.0 mg/kg/injection, schedule: Q01DX009 (ip), vehicle: acid diluted with saline) is 4 of 6. Regarding `CCOCN(COCC)C(C)Cc1ccccc1` (configuration not stated), the survivor count is, setting by setting: under setting [6], 2 of 6; under setting [1], 2 of 6; under setting [5], 0 of 6.

As for `CCCCCC1C(=O)CNC1(C(=O)OCC)C(=O)OCC` (configuration not stated), under setting [2], the survivor count is on record as 6 of 6. As to `O=C(N/N=C/c1cccnc1)C(=O)Nc1cccc(C(F)(F)F)c1`, the survivor count runs as follows: under setting [8], 6 of 6; (dose: 100.0 mg/kg/injection, schedule: Q01DX005 (ip), vehicle: Klucel (hydroxypropylcellulose) (HPC)) 6 of 6; under setting [9], 6 of 6. In the case of `CCn1c(=O)c2[nH]c(Cl)nc2n(CC)c1=O`, the survivor count (dose: 200.0 mg/kg/injection, schedule: Q04DX003 (ip), vehicle: water) is on record as 3 of 6. As to `NCCCN1CCCC1`, under setting [7], the survivor count is on record as 0 of 5.

Regarding `C[N+]1(C)CCc2c([nH]c3ccccc23)C1`, where the note is “dose: 400.0 mg/kg/injection, schedule: Q01DX001 (ip), vehicle: suspension in saline”, the survivor count is reported as 0 of 6.

`Cc1ccc(N=CN(C)Sc2ccc(C(C)(C)C)cc2)c(C)c1`: the survivor count is given as 3 of 6 under setting [4] and 4 of 6 (dose: 400.0 mg/kg/injection, schedule: Q01DX009 (ip), vehicle: Klucel (hydroxypropylcellulose) (HPC)).

Consider `NC1CCC2CCCCC2C1` (configuration not stated), for which, under “dose: 400.0 mg/kg/injection, schedule: Q01DX001 (ip), vehicle: saline”, the survivor count is reported as 1 of 6. Take `COc1ccc(C(Cl)c2ccc(OC)c(OC)c2)cc1OC`: the survivor count (dose: 200.0 mg/kg/injection, schedule: Q01DX009 (ip), vehicle: other) is 3 of 6 and the survivor count (dose: 400.0 mg/kg/injection, schedule: Q01DX009 (ip), vehicle: other) is reported as 2 of 6.

As to `CCCCCCC[CH2][Sn]([CH2]CCCCCCC)([S]CC(=O)OCCCC)[S]CC(=O)OCCCC`, the survivor count (dose: 50.0 mg/kg/injection, schedule: Q01DX009 (ip), vehicle: saline) is 4 of 6.
